Assay results as given in patent publication US20260098054A1 (priority 2022, published 2026).
Some peptides are written in HELM: one residue between dots, names in brackets for other building blocks, links after the first $.

Test: general procedure: Fmoc solid-phase peptide synthesis; rink amide resin (CS Bio); HATU/DIPEA
Conditions: conjugation step

Substance	conjugation yield [% isolated yield]
PEPTIDE1{R.G.D.[dF].[Pen]}|CHEM1{[IsoindolylEtS]}|CHEM2{[DM1]}$PEPTIDE1,PEPTIDE1,1:R1-5:R2|PEPTIDE1,CHEM1,5:R3-1:R1|CHEM1,CHEM2,1:R2-1:R1$$$V2.0	46
PEPTIDE1{R.G.D.[dF].[Lys_isoindolyl]}|CHEM1{[DM1]}$PEPTIDE1,PEPTIDE1,1:R1-5:R2|PEPTIDE1,CHEM1,5:R3-1:R1$$$V2.0	51
